From article PMC7145659
Results are given in words; binding and its absence hold for the method and conditions named. Binding seen in cells or lysates may run through a third protein. Some entries that bind do so weakly or less than the wild type.

Sequences of proteins named here, by UniProt entry; tags and fusion partners are left off.
UniProt P54578: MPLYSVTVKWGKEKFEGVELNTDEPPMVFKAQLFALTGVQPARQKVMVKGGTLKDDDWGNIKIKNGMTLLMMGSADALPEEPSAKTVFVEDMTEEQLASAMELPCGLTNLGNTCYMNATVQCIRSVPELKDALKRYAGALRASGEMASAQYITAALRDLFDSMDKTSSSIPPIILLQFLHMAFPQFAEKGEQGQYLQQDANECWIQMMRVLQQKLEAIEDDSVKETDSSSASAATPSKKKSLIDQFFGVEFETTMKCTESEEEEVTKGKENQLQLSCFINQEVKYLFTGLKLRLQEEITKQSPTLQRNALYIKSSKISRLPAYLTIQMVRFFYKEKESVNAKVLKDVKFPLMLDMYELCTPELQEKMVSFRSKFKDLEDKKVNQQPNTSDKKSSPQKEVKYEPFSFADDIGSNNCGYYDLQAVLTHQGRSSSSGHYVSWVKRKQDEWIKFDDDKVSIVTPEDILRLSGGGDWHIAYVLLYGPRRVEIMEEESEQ
UniProt P12956: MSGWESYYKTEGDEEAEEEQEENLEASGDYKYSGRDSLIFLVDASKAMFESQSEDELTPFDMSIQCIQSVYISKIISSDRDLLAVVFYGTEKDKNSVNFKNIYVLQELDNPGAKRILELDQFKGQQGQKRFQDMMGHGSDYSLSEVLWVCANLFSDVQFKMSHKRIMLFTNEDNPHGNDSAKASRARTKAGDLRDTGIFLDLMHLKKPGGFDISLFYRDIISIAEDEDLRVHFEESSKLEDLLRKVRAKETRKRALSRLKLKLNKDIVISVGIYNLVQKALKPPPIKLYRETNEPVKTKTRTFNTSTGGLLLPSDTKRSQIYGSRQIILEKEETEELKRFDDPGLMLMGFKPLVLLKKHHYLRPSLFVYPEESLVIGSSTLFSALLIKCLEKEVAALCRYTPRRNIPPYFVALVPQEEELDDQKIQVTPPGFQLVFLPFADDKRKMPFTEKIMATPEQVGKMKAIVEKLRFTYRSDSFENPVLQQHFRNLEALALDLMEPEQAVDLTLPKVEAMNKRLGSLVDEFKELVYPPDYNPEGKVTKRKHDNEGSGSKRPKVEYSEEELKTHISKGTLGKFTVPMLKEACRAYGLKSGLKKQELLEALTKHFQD

Experiments:
[1] = biological target: Flag-HA-USP14 (expressed in HEK 293T cells) (human) (UniProt P54578); test: co-IP; HEK 293T cells co-expressing Flag-HA-USP14 and EGFP-Flag-Ku70; IP with anti-HA, immunoblot; lysis buffer 50 mM Tris pH 7.4, 120 mM NaCl, 5 mM EDTA, 0.1% NP40, 1 mM DTT
[2] = biological target: USP14, endogenous (LNCaP cells) (human (endogenous in LNCaP)) (UniProt P54578); test: co-IP; endogenous USP14 immunoprecipitated from LNCaP cells, with or without 4 Gy IR, immunoblot for Ku70

Row | Substance | binding [1] | binding [2]
1 | EGFP-Flag-Ku70 (from UniProt P12956 1-609) | binds | 
2 | Ku70, endogenous (LNCaP cells) (from UniProt P12956 1-609) |  | binds
